Measured values reported in US20240182513A1, “SEPARATION OF METAL IONS FROM A SAMPLE USING GLYCOLIPIDS” (ARIZONA BOARD OF REGENTS ON BEHALF OF THE UNIVERSITY OF …, priority 2021, published 2024).
For at least one compound, name, drawing or mass did not settle the structure.

Tests used:
[1] = Example 2.1 rhamnolipid precipitation, filtration, centrifugation: lead; settings: for Treatment 2: Rhamnolipid and Filtration Cf / Treatment 3: Rhamnolipid and Centrifugation Cc / Treatment 1: Rhamnolipid Only Cr: lead concentration after treatment; for Treatment 1: Rhamnolipid Only (Rr) efficiency of removal / Treatment 2: Rhamnolipid and Filtration (Rf) efficiency of removal / Treatment 3: Rhamnolipid and Centrifugation (Rc) efficiency of removal: lead
Procedure: (§1) Structural variants of synthetic glycolipids were used to show the effect of the number and length of the hydrophobic tail(s) on rhamnolipid as a chemical precipitant. […] Solutions (10 mM) were made using nanopure water (≥18 MΩ-cm) then adjusted to a pH of 6.9±0.05 with HNO3 and NaOH. These solutions were made in advance and stored in the cold room for up to one month. They were brought to room temperature before each experiment.
(§2) Three metals were tested for binding with rhamnolipid. Lead as […] (Fisher Scientific, Waltham, MA, 99% purity), was chosen to represent a metal with high rhamnolipid-metal conditional stability constant; lanthanum as La(NO3)3 6(H2O) (Sigma-Aldrich, St. Louis, MO, 99.99% purity) was chosen as a representative REE; and magnesium as Mg(NO3)2 6(H2O) (Sigma-Aldrich, St. Louis, MO, 99% purity) was chosen to represent a metal with a low rhamnolipid-metal conditional stability constant (Hogan et al., 2017). Metal solutions (5 mM) were made using nanopure water (≥18 MΩ-cm) in 20 ml glass scintillation vials. All solutions were used within 15 min to ensure minimal adsorption to the glass vial.
(§3) Three glycolipid-based treatments were evaluated to remove metal from solution: (1) the addition of glycolipid with no further treatment (gravitational precipitation), (2) the addition of a glycolipid followed by filtration or (3) the addition of a glycolipid followed by centrifugation. Each metal (Pb, La, and Mg) was evaluated separately with each of the glycolipid structures. For each experiment, a metal solution was mixed with a glycolipid solution in a 1.7 ml reaction tube at varying molar ratios of glycolipid to metal: 0:1 (glycolipid-free control), 2:1, 5:1, and 10:1. The reactions were mixed in the order of nanopure water (≥18 MΩ-cm), glycolipid solution (10 mM), then metal solution (5 mM). The metal and glycolipid solutions were continuously stirred as they were aliquoted into the reaction tubes. The experiment was performed in triplicate.
(§4) The reaction tubes were mixed overnight (16 to 24 h) and then three samples were collected from each tube to measure the effect of each of the three treatments: a glycolipid only treatment sample, a filtration treatment sample, and a centrifugation treatment sample. Briefly, for the glycolipid only treatment samples all tubes were vortexed for approximately 5 sec immediately before removing 0.1 ml into a dilution tube of 2% trace metal grade nitric acid (12 to 14 ml) to minimize the settling of particles. For the filtration samples each reaction tube was vortexed for 5 sec and then a 0.6 ml aliquot was collected with a 1 ml syringe. A GHP acrodisc disk filter (hydrophilic polypropylene membrane, 0.45 μm pore size, 25 mm disc diameter) from Pall Life Sciences (Port Washington, New York) was then placed onto the end of the syringe and the solution was pushed through the filter. The void space in the disk filter holds approximately 0.5 ml, therefore around 0.1 ml of filtrate was collected into a dilution tube. For the centrifugation sample, the remaining solution was centrifuged at 10,000 RCF for 15 min. Approximately 0.1 ml of the supernatant was aliquoted into a dilution tube. Following collection, all samples were taken for metal analysis using ICP-MS.

[2] = Example 2.1 rhamnolipid precipitation, filtration, centrifugation: lanthanum; settings: for Treatment 2: Rhamnolipid and Filtration Cf / Treatment 3: Rhamnolipid and Centrifugation Cc / Treatment 1: Rhamnolipid Only Cr: lanthanum concentration after treatment; for Treatment 1: Rhamnolipid Only (Rr) efficiency of removal / Treatment 2: Rhamnolipid and Filtration (Rf) efficiency of removal / Treatment 3: Rhamnolipid and Centrifugation (Rc) efficiency of removal: lanthanum
Procedure: as §1, §2, §3, §4

[3] = Example 2.1 rhamnolipid precipitation, filtration, centrifugation: magnesium; settings: for Treatment 2: Rhamnolipid and Filtration Cf / Treatment 3: Rhamnolipid and Centrifugation Cc / Treatment 1: Rhamnolipid Only Cr: magnesium concentration after treatment
Procedure: as §1, §2, §3, §4

CCCCCCCCCCCC(CC(=O)O)OC(=O)CC(CCCCCCCCCCC)OC1O[C@@H](C)[C@H](O)[C@@H](O)[C@H]1O (stereo partly drawn) [Rha C14C14, rhamnosyl-β-hydroxytetradecanoyl-β-hydroxytetradecanoate]
Treatment 2: Rhamnolipid and Filtration Cf ([1]; molar ratio 2 to 1): 0.094 ± 0.010 mmol/L
Treatment 3: Rhamnolipid and Centrifugation Cc ([1]; molar ratio 2 to 1): 0.1414 ± 0.002 mmol/L
Treatment 1: Rhamnolipid Only Cr ([1]; molar ratio 5 to 1): 0.243 ± 0.022 mmol/L
Treatment 2: Rhamnolipid and Filtration Cf ([1]; molar ratio 5 to 1): 0.016 ± 0.001 mmol/L
Treatment 3: Rhamnolipid and Centrifugation Cc ([1]; molar ratio 5 to 1): 0.042 ± 0.001 mmol/L
Treatment 1: Rhamnolipid Only Cr ([1]; molar ratio 10 to 1): 0.241 ± 0.011 mmol/L
Treatment 2: Rhamnolipid and Filtration Cf ([1]; molar ratio 10 to 1): 0.005 ± 0.001 mmol/L
Treatment 3: Rhamnolipid and Centrifugation Cc ([1]; molar ratio 10 to 1): 0.008 ± 0.000 mmol/L
Treatment 1: Rhamnolipid Only Cr ([1]; molar ratio rhamnolipid:lead 2 to 1): 0.213 ± 0.003 mmol/L
Treatment 1: Rhamnolipid Only (Rr) efficiency of removal ([1]; molar ratio 2 to 1): (21.4%)
Treatment 2: Rhamnolipid and Filtration (Rf) efficiency of removal ([1]; molar ratio 2 to 1): (65.6%)
Treatment 3: Rhamnolipid and Centrifugation (Rc) efficiency of removal ([1]; molar ratio 2 to 1): (48.1%)
Treatment 1: Rhamnolipid Only (Rr) efficiency of removal ([1]; molar ratio 5 to 1): (10.8%)
Treatment 2: Rhamnolipid and Filtration (Rf) efficiency of removal ([1]; molar ratio 5 to 1): (94.1%)
Treatment 3: Rhamnolipid and Centrifugation (Rc) efficiency of removal ([1]; molar ratio 5 to 1): (84.4%)
Treatment 1: Rhamnolipid Only (Rr) efficiency of removal ([1]; molar ratio 10 to 1): (11.3%)
Treatment 2: Rhamnolipid and Filtration (Rf) efficiency of removal ([1]; molar ratio 10 to 1): (98.2%)
Treatment 3: Rhamnolipid and Centrifugation (Rc) efficiency of removal ([1]; molar ratio 10 to 1): (97.1%)
Treatment 2: Rhamnolipid and Filtration Cf ([2]; molar ratio 2 to 1): 0.105 ± 0.013 mmol/L
Treatment 3: Rhamnolipid and Centrifugation Cc ([2]; molar ratio 2 to 1): 0.160 ± 0.002 mmol/L
Treatment 1: Rhamnolipid Only Cr ([2]; molar ratio 5 to 1): 0.143 ± 0.005 mmol/L
Treatment 2: Rhamnolipid and Filtration Cf ([2]; molar ratio 5 to 1): 0.022 ± 0.004 mmol/L
Treatment 3: Rhamnolipid and Centrifugation Cc ([2]; molar ratio 5 to 1): 0.060 ± 0.003 mmol/L
Treatment 1: Rhamnolipid Only Cr ([2]; molar ratio 10 to 1): 0.246 ± 0.014 mmol/L
Treatment 2: Rhamnolipid and Filtration Cf ([2]; molar ratio 10 to 1): 0.031 ± 0.008 mmol/L
Treatment 3: Rhamnolipid and Centrifugation Cc ([2]; molar ratio 10 to 1): 0.029 ± 0.003 mmol/L
Treatment 1: Rhamnolipid Only Cr ([2]; molar ratio rhamnolipid:lanthanum 2 to 1): 0.158 ± 0.016 mmol/L
Treatment 1: Rhamnolipid Only (Rr) efficiency of removal ([2]; molar ratio 2 to 1): (41.1%)
Treatment 2: Rhamnolipid and Filtration (Rf) efficiency of removal ([2]; molar ratio 2 to 1): (60.7%)
Treatment 3: Rhamnolipid and Centrifugation (Rc) efficiency of removal ([2]; molar ratio 2 to 1): (40.3%)
Treatment 1: Rhamnolipid Only (Rr) efficiency of removal ([2]; molar ratio 5 to 1): (46.7%)
Treatment 2: Rhamnolipid and Filtration (Rf) efficiency of removal ([2]; molar ratio 5 to 1): (92.0%)
Treatment 3: Rhamnolipid and Centrifugation (Rc) efficiency of removal ([2]; molar ratio 5 to 1): (77.5%)
Treatment 1: Rhamnolipid Only (Rr) efficiency of removal ([2]; molar ratio 10 to 1): (8.1%)
Treatment 2: Rhamnolipid and Filtration (Rf) efficiency of removal ([2]; molar ratio 10 to 1): (88.3%)
Treatment 3: Rhamnolipid and Centrifugation (Rc) efficiency of removal ([2]; molar ratio 10 to 1): (89.1%)
Treatment 2: Rhamnolipid and Filtration Cf ([3]; molar ratio 2 to 1): 0.152 ± 0.077 mmol/L
Treatment 3: Rhamnolipid and Centrifugation Cc ([3]; molar ratio 2 to 1): 0.270 ± 0.004 mmol/L
Treatment 1: Rhamnolipid Only Cr ([3]; molar ratio 5 to 1): 0.270 ± 0.006 mmol/L
Treatment 2: Rhamnolipid and Filtration Cf ([3]; molar ratio 5 to 1): 0.170 ± 0.098 mmol/L
Treatment 3: Rhamnolipid and Centrifugation Cc ([3]; molar ratio 5 to 1): 0.269 ± 0.013 mmol/L
Treatment 1: Rhamnolipid Only Cr ([3]; molar ratio 10 to 1): 0.275 ± 0.009 mmol/L
Treatment 2: Rhamnolipid and Filtration Cf ([3]; molar ratio 10 to 1): 0.009 ± 0.006 mmol/L
Treatment 3: Rhamnolipid and Centrifugation Cc ([3]; molar ratio 10 to 1): 0.264 ± 0.010 mmol/L
Treatment 1: Rhamnolipid Only Cr ([3]; molar ratio rhamnolipid:magnesium 2 to 1): 0.279 ± 0.002 mmol/L
Treatment 2: Rhamnolipid and Filtration (Rf) efficiency of removal ([3]; magnesium, molar ratio 2 to 1): (43.2%)
Treatment 2: Rhamnolipid and Filtration (Rf) efficiency of removal ([3]; magnesium, molar ratio 5 to 1): (36.4%)
Treatment 2: Rhamnolipid and Filtration (Rf) efficiency of removal ([3]; magnesium, molar ratio 10 to 1): (96.8%)
Treatment 3: Rhamnolipid and Centrifugation (Rc) efficiency of removal ([3]; magnesium, molar ratio 10 to 1): (1.5%)
